Laboratory results taken from patent US20100297119A1.
Results are given in words; binding and its absence hold for the method and conditions named. Some results given as binding are weak or reduced against the parent protein; the word gives no strength.

Molecular target: sTNALP-FcD10 (human)
Experiment: Protein A affinity chromatography of culture supernatant

## Protein A (Protein A-Sepharose) (from UniProt P38507 37-327)
  binding: binds
